PubChem BioAssay AID504764 | Drosophila RNAi Screening Center | 2011

- Screen: 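Knock-downs that raise or lower a Notch target reporter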 (primary screen)
- System: Drosophila Kc167 cells
- Knock-down reagent: long dsRNA against Drosophila genes
- Duration: about 5 days (4 days dsRNA, then 24 h after transfection)
- Conditions: transfection of constitutively active membrane-tethered Notch lacking the extracellular domain, read 24 h later
- Detection: 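Light from a Notch-responsive E(spl)m3 luciferase reporter under active Notch, with control-promoter and no-Notch reporter wells to normalise; raw counts from paired wells a and b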
- Reading the numbers: induced reporter light, run 1, well a and induced reporter light, run 1, well b: higher = more light from the Notch target reporter with active Notch; control promoter light, run 1, well a and control promoter light, run 1, well b: higher = more light from the viral control promoter (cell number, transfection, viability); uninduced reporter light, run 1, well a: higher = more light from the Notch target reporter without active Notch
- Rule for the call: 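Wells with low control signal or poorly matching duplicates excluded; duplicates averaged; per source plate, z beyond ±2 for induced/control log2 ratio or beyond ±1.8 for induced/uninduced marks a hit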
- Calls: active = modifier hit (raised or lowered Notch signal); inactive = not a hit
The screen tested about 22,000 reagents; shown is an unselected part of those with a known target gene and a result. Of all reagents, 403 (1.9%) got an active call. 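Unnormalised raw counts per well; ratio z-scores behind the hit calls and whether each hit raises or lowers signal are not deposited.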 Reagents against one gene are numbered here. A plus sign joins genes that one reagent is predicted to hit. The record does not give: the amount of reagent.

target gene,reagent no.,"induced reporter light, run 1, well a","induced reporter light, run 1, well b","control promoter light, run 1, well a","control promoter light, run 1, well b","uninduced reporter light, run 1, well a",outcome
CG13454,1,1.74e5,1.88e5,2.64e5,2.29e5,14310,inactive
CG10877,1,1.62e5,1.68e5,1.82e5,1.72e5,11155,inactive
CG12773,1,2.01e5,1.69e5,2.55e5,2.62e5,11120,inactive
gce,1,48740,54360,77525,73000,8185,inactive
gce,2,59865,53705,93300,62615,11440,inactive
Cse1,1,1.54e5,1.70e5,80660,83690,15555,active
CG9641,1,1.42e5,1.39e5,1.57e5,1.58e5,13700,inactive
Peritrophin-15a,1,1.30e5,1.42e5,80865,1.04e5,18580,inactive
CG10098,1,1.33e5,1.17e5,86120,93435,10935,inactive
HUWE1,1,1.12e5,89105,1.24e5,97145,17335,inactive
CkIIbeta2,1,98230,59040,75920,67080,5750,inactive
Rab6,1,2.48e5,2.43e5,1.90e5,2.53e5,18310,inactive
CG11777,1,2.07e5,1.71e5,1.83e5,2.15e5,14810,inactive
Ccp84Ad,1,89920,62580,55615,45140,7635,inactive
Stt3B,1,1.64e5,1.74e5,1.97e5,1.84e5,14785,inactive
CG6700,1,2.11e5,1.76e5,1.48e5,1.90e5,16895,inactive
kek3,1,1.28e5,1.48e5,1.54e5,1.54e5,11790,inactive
kek3,2,,,,,,active
CG15717,1,1.10e5,95820,1.64e5,1.37e5,7535,inactive
CG15357,1,1.10e5,1.07e5,96520,53505,7520,inactive
Pgd,1,1.78e5,1.76e5,2.21e5,2.18e5,12100,inactive
CtsL1,1,1.44e5,1.36e5,2.67e5,2.66e5,15782,inactive
CtsL1,2,1.41e5,1.50e5,1.36e5,1.21e5,13915,inactive
CG2006,1,1.86e5,2.06e5,2.24e5,2.37e5,10875,inactive
CG17198 + CG17197,1,1.90e5,2.08e5,2.29e5,1.85e5,14985,inactive
CG17198 + CG17197,2,1.84e5,2.15e5,2.27e5,2.00e5,14430,inactive
CG11601,1,1.02e5,1.08e5,86100,57130,8978,inactive
CG30291,1,71735,90060,87280,79920,8250,inactive
CG16854,1,93160,1.55e5,72080,84795,14305,inactive
CG5139,1,1.15e5,1.10e5,92120,65030,10415,inactive
ND2 (retired record),1,79750,1.15e5,96965,1.27e5,10585,inactive
Gga,1,1.30e5,1.42e5,2.02e5,1.65e5,12165,inactive
Gcna,1,1.81e5,1.68e5,1.96e5,2.44e5,10088,inactive
CG6108 (retired record),1,1.10e5,1.14e5,1.24e5,1.19e5,9680,inactive
CG3502,1,93740,90175,73545,79360,6540,inactive
ValRS-m,1,2.23e5,1.87e5,2.89e5,2.45e5,12750,inactive
CG6431,1,98070,1.28e5,64775,84560,15875,inactive
gb,1,2.27e5,2.48e5,3.01e5,3.05e5,17660,inactive
Cp7Fa,1,1.34e5,1.53e5,2.23e5,3.02e5,10645,inactive
Cp7Fa,2,1.19e5,1.60e5,2.75e5,2.69e5,10880,inactive
CG10428,1,2.03e5,2.05e5,1.72e5,1.71e5,14390,inactive
Cpr57A + Obp57d,1,84110,91915,1.68e5,2.02e5,9030,inactive
Cpr11A,1,47260,44775,53250,50220,4300,inactive
l(1)G0004,1,98690,95450,85130,38800,7832,inactive
CG13700,1,1.93e5,1.75e5,2.45e5,2.45e5,8300,inactive
Fie,1,1.27e5,1.16e5,95910,35960,8725,inactive
CG2528,1,34200,35580,31620,29125,3282,inactive
CG30105,1,17070,18310,22460,24445,5790,inactive
SerT,1,1.38e5,1.29e5,1.23e5,1.34e5,9170,inactive
plu,1,41465,36475,41305,48375,4385,inactive

An excerpt taken from the entries so far, for reference:
target gene,reagent no.,"induced reporter light, run 1, well a","induced reporter light, run 1, well b","control promoter light, run 1, well a","control promoter light, run 1, well b","uninduced reporter light, run 1, well a",outcome
CG2006,1,1.86e5,2.06e5,2.24e5,2.37e5,10875,inactive
CG17198 + CG17197,1,1.90e5,2.08e5,2.29e5,1.85e5,14985,inactive
CG17198 + CG17197,2,1.84e5,2.15e5,2.27e5,2.00e5,14430,inactive
CG11601,1,1.02e5,1.08e5,86100,57130,8978,inactive
CG30291,1,71735,90060,87280,79920,8250,inactive
CG16854,1,93160,1.55e5,72080,84795,14305,inactive
